From doi:10.1101/2023.12.01.569623
No constants are given. Whether binding was seen depends on the method and setting. Binding seen in cells or lysates may run through a third protein. Some binding calls cover weakened binding; strength is not graded here.

By UniProt entry, the sequences of proteins in these tests, tags left out.
UniProt Q9EQ09: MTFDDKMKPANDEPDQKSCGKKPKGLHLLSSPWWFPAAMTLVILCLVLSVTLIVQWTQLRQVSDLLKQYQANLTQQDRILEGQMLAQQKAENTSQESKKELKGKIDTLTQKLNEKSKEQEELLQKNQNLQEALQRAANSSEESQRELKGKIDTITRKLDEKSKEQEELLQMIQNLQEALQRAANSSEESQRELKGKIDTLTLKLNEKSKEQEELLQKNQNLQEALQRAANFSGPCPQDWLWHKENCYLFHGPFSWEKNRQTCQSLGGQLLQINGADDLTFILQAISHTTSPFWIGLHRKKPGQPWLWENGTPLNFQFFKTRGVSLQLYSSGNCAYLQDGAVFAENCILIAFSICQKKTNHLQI

Target: T1, endogenous Siglec-E of murine splenocytes (mouse (endogenous in splenocytes)) (UniProt Q91Y57)
T1 sequence: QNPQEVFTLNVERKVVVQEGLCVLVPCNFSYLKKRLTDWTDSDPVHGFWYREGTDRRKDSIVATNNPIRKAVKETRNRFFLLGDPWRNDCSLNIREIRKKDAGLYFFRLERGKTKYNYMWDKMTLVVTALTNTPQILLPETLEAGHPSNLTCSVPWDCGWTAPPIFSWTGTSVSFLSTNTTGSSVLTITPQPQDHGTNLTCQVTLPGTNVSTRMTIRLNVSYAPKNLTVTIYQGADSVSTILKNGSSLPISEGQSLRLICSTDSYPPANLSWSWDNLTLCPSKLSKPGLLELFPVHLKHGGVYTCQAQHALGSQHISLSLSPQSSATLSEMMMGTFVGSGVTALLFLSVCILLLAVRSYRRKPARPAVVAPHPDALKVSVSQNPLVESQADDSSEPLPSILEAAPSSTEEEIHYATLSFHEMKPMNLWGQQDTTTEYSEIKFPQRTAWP
Test: co-IP

binding: binds
Substance: endogenous LOX-1 of murine splenocytes (from UniProt Q9EQ09 1-363) (receptor)
